Among all 300,000 compounds or so, about 3,700 (1.2%) were called active. The inconclusive results got no clear call from the source; some entries with a clear call stand among them for comparison. Calls come from the whole dose curve; tested in HEK293 cells. Where the call is inconclusive, the potency comes from a doubtful curve fit.
experiment: qHTS for Inhibitors of binding or entry into cells for Lassa Virus; details: Lassa virus pseudotype entry inhibition, cell reporter; activity change, negative = inhibition: at 37.9 µM (top of the series) unless noted; note: nearly all actives have a fitted effect of over 50% in size
% is set by controls: 0 for no effect and ±100 for the full control effect; potency is the fitted concentration of half-maximal effect.

| SMILES | Potency | activity change, negative = inhibition |
| --- | --- | --- |
| Cc1ccc2[nH]c(=O)c(C3C(C#N)=C(N)Oc4c3ccc3cccnc43)cc2c1 (configuration not stated) | inconclusive: 11.2 µM [inhibitor, partial curve, poor fit] | – |
| Oc1ccc(/C=N/Nc2nc(-c3ccc(Cl)cc3)cc(C(F)(F)F)n2)cc1 | inconclusive: 8.91 µM [inhibitor, partial curve, poor fit] | – |
| CCOc1cc(NC(=O)CCl)c(OCC)cc1NC(=O)CCl | inconclusive: 15.8 µM [inhibitor, partial curve, poor fit] | – |
| COc1ccc(CCNC(=O)CCCn2c(=O)c3ccccc3n(Cc3ccccc3)c2=O)cc1OC | inconclusive: 22.4 µM [inhibitor, single point] | – |
| CCOC(=O)C(=CNc1nc(-c2ccc3ccccc3c2)cs1)C(=O)OCC | inconclusive: 35.5 µM [inhibitor, single point] | – |
| O=C1CCN(Cc2ccccc2)C(=O)N1 | – | inactive: 15.7% [at 46.1 µM] |
| O=C(CNc1cc(S(=O)(=O)N2CCCC2)ccc1OCC(F)(F)F)Nc1cccc(C(F)(F)F)c1 | inconclusive: 11.2 µM [inhibitor, partial curve, poor fit] | – |
| CC1(C)Cc2c(sc(NC(=O)c3ccc(S(=O)(=O)N4CCCC4)cc3)c2C#N)C(C)(C)N1 | inconclusive: 4.47 µM [activator, single point] | – |
| Cc1ccc(CNC(=O)Nc2ccccc2)cc1 | – | inactive: -14.6% |
| O=C(Nc1ccc2c(c1)OCO2)C1CC(c2ccc(Cl)cc2)=NO1 (configuration not stated) | – | inactive: 6.3% |
| O=S(=O)(c1ccc(F)cc1)N1CCC(Oc2cccc(C(F)(F)F)c2)CC1 | – | inactive: -1.55% [at 46.1 µM] |
| COc1c(Cl)cc(Cl)cc1C(=O)Nc1cccc(-c2nc3ccccc3o2)c1C | inconclusive: 5.62 µM [inhibitor, single point] | – |
| COc1cc2c(cc1OC)CN(c1ccc(C(N)=O)cc1[N+](=O)[O-])CC2 | – | inactive: -24.5% |
| CC(C)n1ncc2c(C(=O)Nc3cccc(S(=O)(=O)N(C)C)c3)cc(C3CC3)nc21 | inconclusive: 35.5 µM [inhibitor, single point] | – |
| COc1cc(NC(=O)c2ccc3c(c2)OCCO3)ccc1NC(=O)c1ccccc1Cl | inconclusive: 35.5 µM [inhibitor, single point] | – |
| Cc1ccc(NC(=O)CN(C)C(=O)c2cn(Cc3ccccc3)nc2-c2cccnc2)cc1 | inconclusive: 3.16 µM [activator, partial curve, poor fit] | – |
| COCCCNC(=O)C1CCN(Cc2cc3ccccc3n2Cc2cccc(C)c2)CC1 | – | inactive: -20.8% [at 46.1 µM] |
| CNC(=O)C1CCC(Cn2c(=O)c3sccc3n(CC(=O)N3CCCC(C)C3)c2=O)CC1 (configuration not stated) | inconclusive: 4.47 µM [activator, single point] | – |
| CC(CC(=O)NCc1ccccc1)C1CCCO1 (configuration not stated) | – | inactive: -6.51% |
| Cc1ccc(NC(=O)COc2ccc(-n3cnnn3)cc2)cc1C | inconclusive: 3.16 µM [inhibitor, single point] | – |
| COc1ccccc1CNC(=O)CSc1ncc(S(=O)(=O)c2ccc(C)c(Cl)c2)c(=O)[nH]1 | – | inactive: 17.9% [at 46.1 µM] |

| SMILES | Potency | activity change, negative = inhibition |
| --- | --- | --- |
| S=C(NCC1CCCO1)c1ccc(Br)cc1 (configuration not stated) | inconclusive: 3.98 µM [activator, partial curve, poor fit] | – |
| Cc1nn(-c2ccccc2)c(C)c1/C=N/NC(=O)CSc1nc2ccccc2c(=O)n1-c1ccccc1 | inconclusive: 10 µM [inhibitor, partial curve, poor fit] | – |
| CCN(CC)S(=O)(=O)c1ccc(NC(=O)Cn2c(=O)sc3ccccc32)cc1 | inconclusive: 29.1 µM [inhibitor, single point] | – |
| COc1cc(C(C)=O)ccc1OCC(=O)N(CCC1=CCCCC1)c1c(N)n(Cc2ccccc2)c(=O)[nH]c1=O | – | inactive: -14.9% |
| Cc1cc2n(n1)C(c1sccc1C)Nc1c(C)cccc1-2 (configuration not stated) | inconclusive: 29.1 µM [activator, single point] | – |
| O=C(N/N=C/c1cn[nH]c1-c1ccc(Cl)cc1)c1ccc([N+](=O)[O-])cc1 | – | inactive: 6.66% |
| Cc1ccc(S(=O)(=O)NC(=O)NCC2CCN(S(=O)(=O)c3ccccc3)CC2)cc1 | inconclusive: 6.31 µM [activator, single point] | – |
| COc1ccc(C(=O)N2CCOC2CNC(=O)C(=O)NCc2ccc(F)cc2)cc1 (configuration not stated) | inconclusive: 1.26 µM [inhibitor, single point] | – |
| COc1cccc(C(=O)Nc2ccc(N3CCN(C(=O)c4cccs4)CC3)cc2)c1 | inconclusive: 0.631 µM [inhibitor, full curve] | – |
| COc1cc(-c2nc(SCC(=O)Nc3ccc4c(c3)OCO4)c(-c3ccccc3)[nH]2)cc(OC)c1OC | inconclusive: 3.55 µM [inhibitor, single point] | – |
| C(=NN1CCCCCC1)c1c[nH]c2ccccc12 | – | inactive: 3.78% [at 46.1 µM] |
| NC(=O)c1nsc(C(=O)N(c2ccccc2)C(C(=O)NCc2ccc(F)cc2)c2ccco2)c1N (configuration not stated) | inconclusive: 17.8 µM [inhibitor, single point] | – |
| C/C(=N\Nc1cccc(C(=O)O)c1)c1ccc(Cl)s1 | – | inactive: -14.2% [at 46.1 µM] |
| O=C(Nc1ccc(Cl)cc1)N1CCCN(Cc2ccccc2F)C1 | – | inactive: -26.9% |
| OC(c1cccc(Cl)c1)(c1cccc(Cl)c1)C1CN2CCC1CC2 (configuration not stated) | inconclusive: 35.5 µM [inhibitor, single point] | – |
| O=c1c2ccccc2nc(/C=C/c2ccccc2O)n1-c1ccc(Br)cc1 | inconclusive: 5.01 µM [inhibitor, partial curve, poor fit] | – |
| O=C(O)c1cccc2c1C(=O)N(CC1CCCO1)C2 (configuration not stated) | – | inactive: -8.47% |
| CCOc1ccc(N/C(C)=C/C(=O)c2ccc3c(c2)OCCO3)cc1 | inconclusive: 31.6 µM [inhibitor, single point] | – |
| Cc1ccc(CN2CC(C(=O)N3CCN(S(=O)(=O)c4ccc(C(C)C)cc4)CC3)CC2=O)cc1 (configuration not stated) | inconclusive: 35.5 µM [inhibitor, single point] | – |
| CCOC(=O)c1ccc(S(=O)(=O)NNC(=O)COc2cccc(C)c2)cc1 | inconclusive: 29.1 µM [activator, single point] | – |
| COc1cc(Cl)ccc1OCc1cc(C(=O)N(C)Cc2cccc3cnccc23)no1 | inconclusive: 35.5 µM [inhibitor, single point] | – |

Quoted at random: two compounds from above

| SMILES | Potency | activity change, negative = inhibition |
| --- | --- | --- |
| CC(C)n1ncc2c(C(=O)Nc3cccc(S(=O)(=O)N(C)C)c3)cc(C3CC3)nc21 | inconclusive: 35.5 µM [inhibitor, single point] | – |
| Cc1ccc2[nH]c(=O)c(C3C(C#N)=C(N)Oc4c3ccc3cccnc43)cc2c1 (configuration not stated) | inconclusive: 11.2 µM [inhibitor, partial curve, poor fit] | – |

— PubChem BioAssay AID540256 (National Center for Advancing Translational Sciences (NCATS), 2011)
